From the supplement of paper PMC10331698
± gives the standard deviation of the averaged measurements. Small differences around the control level are noise.

What was measured:
Assay in all cases: level (log10 ratio to DMSO vehicle control); higher = higher biomarker level / cell amount than vehicle control
[1] = compound: CCN(CCO)S(=O)(=O)C(F)(F)C(F)(F)C(F)(F)C(F)(F)C(F)(F)C(F)(F)C(F)(F)C(F)(F)F [N-Ethyl-N-(2-hydroxyethyl)perfluorooctanesulfonamide]; conditions: in DMSO
Method: (§1)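 BioMAP Diversity Plus panel of 12 human primary cell co-culture systems (3C, 4H, LPS, SAg, BT, BF4T, BE3C, CASM3C, HDF3CGF, KF3CT, MyoF, Mphg). Compounds were added 1 h before stimulation and left for 24 h (MyoF 48 h; BT 72 h for soluble read-outs or 6 d for IgG). Biomarkers were read by ELISA, cytotoxicity by SRB, PBMC viability and proliferation by Alamar Blue. Each well value was divided by the mean of 8 DMSO control wells on the same plate and log10 transformed; duplicate blinded samples were tested at 4 concentrations.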

[2] = compound: O=C(O)C(F)(F)C(F)(F)C(F)(F)OC(F)(F)F [Perfluoro(4-methoxybutanoic) acid]; conditions: 2200 nM; in DMSO
Method: as §1

[3] = compound: O=C(O)C(F)(F)C(F)(F)C(F)(F)C(F)(F)C(F)(F)C(F)(F)C(F)(F)C(F)(F)C(F)(F)C(F)F [11-H-Perfluoroundecanoic acid]; conditions: 2200 nM; in DMSO
Method: as §1

Heptafluorobutyramide = compound: NC(=O)C(F)(F)C(F)(F)C(F)(F)F [Heptafluorobutyramide]; conditions: 2200 nM; in DMSO
Method: as §1

[4] = compound: CC(C)(C)C(=O)CC(=O)C(F)(F)C(F)(F)C(F)(F)F [(Heptafluorobutanoyl)pivaloylmethane]; conditions: 2200 nM; in DMSO
Method: as §1

[5] = compound: FC(F)(F)C(F)(F)C(F)(F)C(F)(F)C(F)(F)C(F)(F)CC1CO1 [3-(Perfluorohexyl)-1,2-epoxypropane]; conditions: 2200 nM; in DMSO
Method: as §1

[6] = compound: OCCC(F)(F)C(F)(F)C(F)(F)C(F)(F)C(F)(F)C(F)(F)F [6:2 Fluorotelomer alcohol]; conditions: 2200 nM; in DMSO
Method: as §1

[7] = compound: NCC(F)(F)C(F)(F)C(F)(F)C(F)(F)C(F)(F)C(F)(F)C(F)(F)F [1H,1H-Perfluorooctylamine]; conditions: 2200 nM; in DMSO
Method: as §1

Octafluoroadipic acid = compound: O=C(O)C(F)(F)C(F)(F)C(F)(F)C(F)(F)C(=O)O [Octafluoroadipic acid]; conditions: 2200 nM; in DMSO
Method: as §1

[8] = compound: O=S(=O)(O)CCC(F)(F)C(F)(F)C(F)(F)C(F)(F)C(F)(F)C(F)(F)C(F)(F)C(F)(F)F [8:2 Fluorotelomer sulfonic acid]; conditions: in DMSO
Method: as §1

1-(Perfluorohexyl)octane = compound: CCCCCCCCC(F)(F)C(F)(F)C(F)(F)C(F)(F)C(F)(F)C(F)(F)F [1-(Perfluorohexyl)octane]; conditions: in DMSO
Method: as §1

[9] = compound: Cc1ccc(S(=O)(=O)OCC(F)(F)C(F)(F)C(F)(F)C(F)(F)C(F)(F)C(F)F)cc1 [1H,1H,7H-Perfluoroheptyl 4-methylbenzenesulfonate]; conditions: 2200 nM; in DMSO
Method: as §1

Perfluoroheptanoic acid = compound: O=C(O)C(F)(F)C(F)(F)C(F)(F)C(F)(F)C(F)(F)C(F)(F)F [Perfluoroheptanoic acid]; conditions: in DMSO
Method: as §1

Perfluoropentanoic acid = compound: O=C(O)C(F)(F)C(F)(F)C(F)(F)C(F)(F)F [Perfluoropentanoic acid]; conditions: in DMSO
Method: as §1

[10] = compound: CN(C(=O)C(F)(F)C(F)(F)C(F)(F)F)[Si](C)(C)C [N-Methyl-N-trimethylsilylheptafluorobutyramide]; conditions: 2200 nM; in DMSO
Method: as §1

1H,1H-Heptafluorobutanol = compound: OCC(F)(F)C(F)(F)C(F)(F)F [1H,1H-Heptafluorobutanol]; conditions: 2200 nM; in DMSO
Method: as §1

Test System | level (log10) ([1]; 2200 nM) | level (log10) ([1]; 6700 nM) | level (log10) ([1]; 20000 nM) | level (log10) [2] | level (log10) [3] | level (log10) (Heptafluorobutyramide) | level (log10) [4] | level (log10) [5] | level (log10) [6] | level (log10) [7] | level (log10) (Octafluoroadipic acid) | level (log10) ([8]; 2200 nM) | level (log10) ([8]; 6700 nM) | level (log10) ([8]; 20000 nM) | level (log10) ([8]; 60000 nM) | level (log10) (1-(Perfluorohexyl)octane; 740 nM) | level (log10) (1-(Perfluorohexyl)octane; 2200 nM) | level (log10) [9] | level (log10) (Perfluoroheptanoic acid; 2200 nM) | level (log10) (Perfluoroheptanoic acid; 6700 nM) | level (log10) (Perfluoroheptanoic acid; 20000 nM) | level (log10) (Perfluoroheptanoic acid; 60000 nM) | level (log10) (Perfluoropentanoic acid; 2200 nM) | level (log10) (Perfluoropentanoic acid; 6700 nM) | level (log10) (Perfluoropentanoic acid; 20000 nM) | level (log10) (Perfluoropentanoic acid; 60000 nM) | level (log10) [10] | level (log10) (1H,1H-Heptafluorobutanol)
BF4T:MMP-3 | 0.01 ± 0.037 | -0.0145 ± 0.025 | 0.0505 ± 0.023 | 0.023 ± 0.025 | 0.0175 ± 0.044 | 0.0165 ± 0.011 | -0.009 ± 0.014 | 0.0455 ± 0.049 | 0.01 ± 0.03 | 0.022 ± 0.068 | 0.006 ± 0.025 | 0.016 ± 0.044 | -0.0095 ± 0.043 | 0.027 ± 0.034 | 0.0755 ± 0.0078 | 0.0125 ± 0.016 | -0.0045 ± 0.005 | -0.003 ± 0.013 | 0.0305 ± 0.083 | -0.027 ± 0.023 | -0.011 | 0.046 ± 0.048 | -0.0015 ± 0.047 | -0.015 ± 0.011 | -0.0145 ± 0.0092 | -0.0045 ± 0.04 | 0.0005 ± 0.044 | 0.007 ± 0.0085
BF4T:MMP-9 | 0.0265 ± 0.036 | -0.012 ± 0.014 | -0.032 ± 0.0014 | 0.031 ± 0.0014 | -0.057 ± 0.042 | 0.0265 ± 0.036 | -0.0005 ± 0.083 | 0.02 ± 0.024 | 0.0195 ± 0.04 | 0.003 ± 0.025 | 0.019 ± 0.033 | 0.0405 ± 0.018 | 0.0065 ± 0.015 | -0.003 ± 0.0014 | -0.0215 ± 0.005 | 0.0005 ± 0.012 | -0.0125 ± 0.0021 | -0.0175 ± 0.019 | 0.031 ± 0.028 | 0.0145 ± 0.016 | 0.0445 ± 0.022 | 0.103 ± 0.054 | -0.0005 ± 0.029 | -0.0115 ± 0.0064 | -0.0115 ± 0.019 | -0.0005 ± 0.035 | -0.003 ± 0.047 | -0.0115 ± 0.049
